# Source: ChEMBL document CHEMBL4513141, “CO-ADD screening of NIH (USA) - Clinical Collection” (2021)
# Some of the results follow. Measured potencies and affinities stand elsewhere.
# Test system: Pseudomonas aeruginosa
# Settings: Concentration 20 uM; ASSAY_TEST Inhibition of Bacterial Growth; detection method Absorption (OD600); MEDIA CAMHB; plate type 384well; NBS; CORNING #3640; time 18 hr
row,SMILES,Inhibition [%]
1,CC(c1cc2ccccc2s1)N(O)C(N)=O (stereo not drawn) [ZILEUTON],6.91
2,CN(C)CCC[C@@]1(c2ccc(F)cc2)OCc2cc(C#N)ccc21.O=C(O)C(=O)O [ESCITALOPRAM OXALATE],7.25
3,Nc1ccc(O)c(C(=O)O)c1 [MESALAMINE],3.43
4,O=C([O-])c1cc(=O)c2c(OCC(O)COc3cccc4oc(C(=O)[O-])cc(=O)c34)cccc2o1.[Na+].[Na+] [CROMOLYN SODIUM],6.23
5,CN1CCN(CCCN2c3ccccc3Sc3ccc(C(F)(F)F)cc32)CC1.Cl.Cl [TRIFLUOPERAZINE HYDROCHLORIDE],18.35
6,CS(=O)(=O)O.Oc1ccc(C2CNCCc3c2cc(O)c(O)c3Cl)cc1 (stereo not drawn) [FENOLDOPAM MESYLATE],12.84
7,CCC(C)(C)C(=O)O[C@H]1C[C@@H](C)C=C2C=C[C@H](C)[C@H](CC[C@@H]3C[C@@H](O)CC(=O)O3)[C@H]21 [SIMVASTATIN],2.51
8,O=C(O[C@H]1[C@H](Oc2ccccc2COC(=O)C2(O)C=CCCC2=O)O[C@H](CO)[C@@H](O)[C@@H]1O)c1ccccc1 (stereo partly drawn) [TREMULACIN],30.98
9,O=C1C(CC[S+]([O-])c2ccccc2)C(=O)N(c2ccccc2)N1c1ccccc1 (stereo not drawn) [SULFINPYRAZONE],20.19
10,CC(C)C[C@H](NC(=O)[C@@H](O)[C@H](N)Cc1ccccc1)C(=O)O [UBENIMEX],8.82
11,C=CCc1ccc(O)c(-c2ccc(O)c(CC=C)c2)c1 [HONOKIOL],34.04
12,Nc1c2c(nc3c1CCC3)CCCC2 [IPIDACRINE],19.41
13,CC1(C)O[C@@H]2C[C@H]3[C@@H]4C[C@H](F)C5=CC(=O)C=C[C@]5(C)[C@@]4(F)[C@@H](O)C[C@]3(C)[C@]2(C(=O)CO)O1 [FLUOCINOLONE ACETONIDE],11.45
14,CN(CCOc1ccc(NS(C)(=O)=O)cc1)CCc1ccc(NS(C)(=O)=O)cc1 [DOFETILIDE],16.72
15,CCN(CC)CCOC(=O)C1(C2CCCCC2)CCCCC1.Cl [DICYCLOMINE HYDROCHLORIDE],3.37
16,COc1ccnc(C[S+]([O-])c2nc3cc(OC(F)F)ccc3[n-]2)c1OC.O.[Na+] (stereo not drawn) [PANTOPRAZOLE SODIUM],43.3
17,CCC(C)(C)/N=C(\NC#N)Nc1cccnc1,33.28
18,C[C@]12C[C@H](O)[C@H]3[C@@H](CCC4=CC(=O)CC[C@@]43C)[C@@H]1CC[C@@H]2C(=O)CO [CORTICOSTERONE],17.17

# 2 entries from above in another layout:
row	SMILES	Inhibition [%]
5	CN1CCN(CCCN2c3ccccc3Sc3ccc(C(F)(F)F)cc32)CC1.Cl.Cl [TRIFLUOPERAZINE HYDROCHLORIDE]	18.35
6	CS(=O)(=O)O.Oc1ccc(C2CNCCc3c2cc(O)c(O)c3Cl)cc1 (stereo not drawn) [FENOLDOPAM MESYLATE]	12.84
